In publication PMC9412818:
These are yes or no findings as the source states them, for the method shown. In cells and extracts the contact can be indirect. Some entries that bind do so weakly or less than the wild type. Where a sequence is shown, tags or fusion partners need not be part of it.

Sequences of proteins named here, by UniProt entry; tags and fusion partners are left off.
UniProt Q6U7I1: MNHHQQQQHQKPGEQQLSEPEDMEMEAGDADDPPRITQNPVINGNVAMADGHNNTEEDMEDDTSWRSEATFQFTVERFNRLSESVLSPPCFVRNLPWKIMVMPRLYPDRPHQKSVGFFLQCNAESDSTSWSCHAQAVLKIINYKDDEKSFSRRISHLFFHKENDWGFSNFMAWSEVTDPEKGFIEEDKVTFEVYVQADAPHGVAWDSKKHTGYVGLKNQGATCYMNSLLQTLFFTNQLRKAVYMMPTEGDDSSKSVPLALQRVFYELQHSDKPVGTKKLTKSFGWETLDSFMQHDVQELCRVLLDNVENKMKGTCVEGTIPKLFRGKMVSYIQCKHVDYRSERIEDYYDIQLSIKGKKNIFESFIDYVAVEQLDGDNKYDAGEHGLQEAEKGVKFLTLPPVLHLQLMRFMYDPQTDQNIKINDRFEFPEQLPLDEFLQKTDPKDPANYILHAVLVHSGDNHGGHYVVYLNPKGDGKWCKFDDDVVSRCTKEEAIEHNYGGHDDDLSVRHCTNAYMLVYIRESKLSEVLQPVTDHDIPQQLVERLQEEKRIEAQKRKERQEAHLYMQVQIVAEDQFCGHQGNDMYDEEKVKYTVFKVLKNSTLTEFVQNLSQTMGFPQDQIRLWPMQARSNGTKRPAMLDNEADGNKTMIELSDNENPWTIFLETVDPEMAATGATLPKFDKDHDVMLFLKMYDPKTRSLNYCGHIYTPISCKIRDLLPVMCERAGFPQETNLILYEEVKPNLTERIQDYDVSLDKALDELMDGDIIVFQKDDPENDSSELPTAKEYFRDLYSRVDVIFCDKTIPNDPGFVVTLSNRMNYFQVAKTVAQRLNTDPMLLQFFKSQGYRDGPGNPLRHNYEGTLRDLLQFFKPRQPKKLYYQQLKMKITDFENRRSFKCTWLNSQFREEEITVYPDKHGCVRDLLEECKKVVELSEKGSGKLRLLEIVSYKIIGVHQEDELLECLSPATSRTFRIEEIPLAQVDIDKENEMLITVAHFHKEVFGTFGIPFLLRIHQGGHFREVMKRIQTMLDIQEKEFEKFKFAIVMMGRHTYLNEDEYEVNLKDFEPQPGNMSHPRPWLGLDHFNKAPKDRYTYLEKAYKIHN

Molecular target: chicken USP7 (chUSP7), MYC-tagged (chicken) (UniProt Q6U7I1)
Assay: co-IP; DF1 cells co-transfected, lysed 24 h later in RIPA buffer (50 mM Tris-HCl pH 7.4, 150 mM NaCl, 0.25% deoxycholic acid, 1 mM EDTA, 1% NP-40, 0.5% SDS); precipitated with anti-MYC beads overnight at 4°C; immunoblot

binding: binds
B1: chicken MyD88 (chMyD88), 3xFLAG-tagged (protein, UniProt A5HNF6 1-299)
chain: MATVPVGAGSAPGPEPADLHSVPMVALNYGVRRRLGLYLNPRAATAADWTALAEKLGHDYLEIRRLEALPDPTAALLEEWQSRCPGGATVGQLLELLRQLGRHDVLLELGGSVEEDCKKYLRRKQQEAEQPLQVPAVDSSVPKTSELMGITTRDDPYGHGTEMFDAFICYCQKDLQFVQEMIRELEQTEFKLKLCVFDRDVLPGTCVWSISGELIERRCRRMVVVISDDYLESDECDFQTKFALSLSPGARLKRLIPVKCKTMKNEFPSILRFITICDYTNPCTKKWFWTRLAKSLLLP
